Source: PubChem BioAssay AID1347431 (National Center for Advancing Translational Sciences (NCATS), 2020)
Out of some 1,200 compounds screened, fewer than 10 were called active. Calls follow the shape of the dose curve; as a rule, active = well fitted curve in the direction sought with a large enough effect; inconclusive = small, poorly fitted or top-dose-only effect, or another doubt; inactive = no such curve, though single readings can be large or run the other way. This is one part of the list.

Assay: Confirmatory qHTS assay for inhibitors of Activation Induced Cytidine Deaminase (AID): UDG signals; also: 0% is about no effect
Settings: UDG coupled enzyme activity counter-screen; at 115 µM (top of the series) unless noted
How it was run: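 UDG readout, a counterscreen: AID (1 uM, 4/3x) plus UDG (2 U/mL, 4/3x) preincubated 10 min with compound (7.32 nM - 114 uM final), then 4 h with DJC20/DJC23 substrates at room temperature; NaOH added, fluorescence read at 560/665 nm.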

Structure (SMILES)	activity change, negative = inhibition
Cc1cccc(N2CCN(C(=O)c3ccc(CS(=O)c4cccc(Cl)c4)o3)CC2)c1C (stereo not given)	inactive: -2.23%
O=C1c2ccccc2C(=O)c2c(NCCc3ccc(O)cc3)ccc(NCCc3ccc(O)cc3)c21	inactive: -0.428%
CCC(C(=O)N1CCN(c2cc(C)ccc2C)CC1)n1nc(C)n2c(cc3occc32)c1=O (stereo not given)	inactive: -15%
Cc1ccc(C)c(N2CCN(CCCNC(=O)c3ccc4nc(N5CCC(C)CC5)sc4c3)CC2)c1	inactive: -8.72%
CCOc1ccc(C(=O)c2cn(Cc3cccc(OC)c3)c3cc4c(cc3c2=O)OCO4)cc1	inactive: -3.75%
Cc1ccc(S(=O)(=O)N2CCCC2C(=O)Nc2ccc(Br)cc2)cc1 (stereo not given)	inactive: -3.38%
CC(C)(C)OC(=O)N1CCC(c2c(C(=O)NCc3ccccc3)cnn2-c2ccc(F)cc2)CC1	inactive: -5.29%
CC(C)(C)C1CCc2c(sc(NC(=O)c3ccccc3F)c2C(=O)NCc2ccco2)C1 (stereo not given)	inactive: -16.7%
O=C(c1cccn1-c1nnc(N2CCCCC2)s1)N1CCN(c2ccc(Cl)cc2)CC1	inactive: -13.6%
CCCOc1ccc(-c2cc(C(F)(F)F)c(C#N)c(SCCC(=O)O)n2)cc1	inactive: 1.26%
CC(=O)N1CCc2c(sc3c2c(=O)n(CCc2ccccc2)c(=O)n3Cc2ccccc2C)C1	inactive: -5.14%
Cc1cccc(C)c1NC(=O)CS(=O)(=O)c1nc(-c2ccc(Cl)cc2)cn1-c1ccccc1	inactive: -12.5%
COc1cccc(-n2c(-c3cccc(F)c3)nc3c(cnn3-c3ccc(C)cc3)c2=O)c1	inactive: -14%
CC(C)(C)c1ccc(-c2nc(SCC(=O)Nc3ccc(Cl)cc3)[nH]c(=O)c2C#N)cc1	inactive: -7.66%
CCN(CCCNC(=O)c1cc2c(Cl)nc3ccccc3c2s1)Cc1ccccc1	inactive: 1.54%
CCCN(C(=O)CCc1nc(-c2ccc(OC)cc2)no1)c1ccccc1F	inactive: -15.5%
CC(C)(C)OC(=O)N1CCC(c2c(C(=O)NCCc3ccccc3)cnn2-c2ccc(F)cc2)CC1	inactive: -2.07%
O=C(NCCc1nc2ccccc2n1Cc1ccc(Cl)cc1Cl)c1ccco1	inactive: -8.16%
Cc1cccc(-n2cnc3cc(C(=O)NCc4ccccc4Cl)ccc32)c1	inactive: 3.52%
COc1ccc(-c2nn(C)c3sc(C(=O)NCCN(C)C)cc23)cc1OC	inactive: -7.31%

Structure (SMILES)	activity change, negative = inhibition
Cc1cccn2c(=O)cc(COc3cccc(NC(=O)COc4ccc(F)cc4)c3)nc12	inactive: 5.69%
CCCc1nc2ccccc2n2c(-c3ccccc3)c3c(=O)n(C)c(=O)n(C)c3c12	inactive: -2.27%
Fc1ccccc1Cn1c(-c2ccccc2)nc2ccccc21	inactive: -13.4%
Cc1ccc2c(c1)C(c1ccc(F)cc1)N(C(=O)c1ccc(OC(C)C)cc1)CC(=O)N2 (stereo not given)	inactive: -1.56%
Cc1ccc(C)c(N2CCN(C(=O)c3cc4c(=O)n(Cc5cccs5)ccc4nc3C)CC2)c1	inactive: -4.74%
Cc1ccc(CSC2=Nc3ccccc3C3=NC(CCC(=O)NCc4cccs4)C(=O)N23)cc1 (stereo not given)	inactive: 3.12%
CCOc1ccccc1N(CC)C(=O)c1cc2c(=O)n(CC)c3ccccc3c2s1	inactive: -9.39%
COc1cc(NC(=O)CSc2nc3nc(C)c(Cc4ccccc4)c(C)n3n2)cc(OC)c1OC	inactive: -4.7%
CCCCC(CC)Cn1c(Oc2ccccc2)nc2c1c(=O)n(C)c(=O)n2C (stereo not given)	inactive: 3.18%
CCc1ccc(CNC(=O)c2cnc3sc(N(CC)CC)nn3c2=O)cc1	inactive: -5.38%
Cc1ccc2c(C)c(C(=O)NCC(c3ccc(Cl)cc3)N3CCOCC3)oc2c1 (stereo not given)	inactive: -1.8%
Cc1ccc(Cl)cc1NC(=O)Nc1cn(CC(C)C)c(=O)c2ccccc12	inactive: -2.69%
Cc1ccccc1C(=O)Nc1ccc(C(=O)OCc2cc(=O)n3c4c(sc3n2)CCCC4)cc1	inactive: -1.88%
Cc1ccc(Cl)cc1N(C)C(=O)c1cc2ccc3cccnc3c2[nH]1	inactive: 0.172%
CN(Cc1ccco1)C(=O)c1ccc2c(c1)N(Cc1ccccc1F)C(=O)c1ccccc1S2	inactive: -0.417%
CCC1CN(C(=O)N2CCC(C(=O)N3CCN(c4cccc(C)c4C)CC3)CC2)c2ccccc2O1 (stereo not given)	inactive: -8.39%
COc1ccc(N2CCN(C(=O)c3cc4c(-c5ccccc5F)nn(C)c4s3)CC2)cc1	inactive: -2.54%
CCOc1ccc(CCNC(=O)c2ccc3c(c2)c(C)c(C)n3C)cc1	inactive: 6.28%
Cc1[nH]n2c(=O)cc(-c3ccccc3Cl)nc2c1-c1ccccc1	inactive: 15.7%
CCn1cc(S(=O)(=O)c2ccccc2)c(=O)c2cc(F)c(N3CCCCCC3)cc21	inactive: -13.5%

In another format: results already given
Cc1cccc(C)c1NC(=O)CS(=O)(=O)c1nc(-c2ccc(Cl)cc2)cn1-c1ccccc1
  activity change, negative = inhibition: inactive: -12.5%
COc1cccc(-n2c(-c3cccc(F)c3)nc3c(cnn3-c3ccc(C)cc3)c2=O)c1
  activity change, negative = inhibition: inactive: -14%
